Test system: carbachol precontracted guinea-pig isolated trachea
Assay: In-vitro functional assay: relaxation of carbachol precontracted guinea-pig isolated trachea by PDE-IV inhibitors with or without MRA preincubation
Conditions: PDE-IV inhibitor alone (vehicle preincubation); for Tension(gm) After carbachol challenge: 1 μM carbachol
Description: Guinea Pigs (400-600 gm) were procured and trachea was removed under anesthesia (sodium pentobarbital, 300 mg/kg i.p) and immediately kept in ice-cold Krebs Henseleit buffer. Indomethacin (10 uM) was present throughout the KH buffer to prevent the formation of bronchoactive prostanoids.
The tissue of adherent fascia was removed and cut into strips of equal size (with approx. 4-5 tracheal rings in each strip). The epithelium was removed by careful rubbing, minimizing damage to the smooth muscle. […] Opposite ends of the cut rings were tied with the help of a thread. The tissue was mounted in isolated tissue baths containing 10 ml Krebs Henseleit buffer maintained at 37° C. and bubbled with carbogen, at a basal tension of 1 gm. The buffer was changed 4-5 times for about an hour. Equilibration of the tissue was done for 1 hr for stabilization. After 1 hr, the tissue was challenged with 1 μM carbachol. This was repeated after every 2-3 washes till two similar consecutive responses were obtained. At the end of stabilization, the tissues were incubated with suboptimal dose of MRA/Vehicle for 20 minutes prior to contraction of the tissues with 1 μM carbachol. The relaxant activity of the PDE-IV inhibitor [10^−9M to 10^−4 M] on the stabilized developed tension/response was subsequently assessed. The contractile response of tissues was recorded either on Powerlab data acquisition system or on Grass polygraph (Model 7). The relaxation was expressed as percentage of maximum carbachol response and EC25 was calculated as the concentration producing 25% of the maximum relaxation to 1 μM carbachol. The percent relaxation between the treated and control tissues were compared using non-parametric unpaired t-test. A p value of <0.05 is considered to be statistically significant.

Row | SMILES | Tension(gm) Before carbachol challenge | Tension(gm) After carbachol challenge
1 | COc1ccc(C2=NO[C@]3(CCOC3)C2)cc1OC1CCCC1 [Compound No. 124aa, (S)-3-[3-(cyclopentyloxy)-4-methoxyphenyl]-1,7-dioxa-2-azaspiro[4.4]non-2-ene] | 1.84 ± 0.32 gm | 1.99 ± 0.40 gm
2 | O=C(Nc1c(Cl)cncc1Cl)c1ccc(OC(F)F)c(OCC2CC2)c1 [Roflumilast] | 1.38 ± 0.22 gm | 1.57 ± 0.22 gm
3 | COc1ccc(C2CNC(=O)C2)cc1OC1CCCC1 (stereo not drawn) [Rolipram] | 1.24 ± 0.04 gm | 1.16 ± 0.30 gm

— US20090221664A1, “PHARMACEUTICAL COMPOSITIONS OF MUSCARINIC RECEPTOR ANTAGONISTS” (priority 2005, published 2009)
